# In the supplement of paper PMC6411743:
# Protein sequences, listed by entry. Tags and fused reporters are not part of them. Lines headed by an entry give the natural chain unless they say otherwise; changes in a name come on top.
# UniProt P16383: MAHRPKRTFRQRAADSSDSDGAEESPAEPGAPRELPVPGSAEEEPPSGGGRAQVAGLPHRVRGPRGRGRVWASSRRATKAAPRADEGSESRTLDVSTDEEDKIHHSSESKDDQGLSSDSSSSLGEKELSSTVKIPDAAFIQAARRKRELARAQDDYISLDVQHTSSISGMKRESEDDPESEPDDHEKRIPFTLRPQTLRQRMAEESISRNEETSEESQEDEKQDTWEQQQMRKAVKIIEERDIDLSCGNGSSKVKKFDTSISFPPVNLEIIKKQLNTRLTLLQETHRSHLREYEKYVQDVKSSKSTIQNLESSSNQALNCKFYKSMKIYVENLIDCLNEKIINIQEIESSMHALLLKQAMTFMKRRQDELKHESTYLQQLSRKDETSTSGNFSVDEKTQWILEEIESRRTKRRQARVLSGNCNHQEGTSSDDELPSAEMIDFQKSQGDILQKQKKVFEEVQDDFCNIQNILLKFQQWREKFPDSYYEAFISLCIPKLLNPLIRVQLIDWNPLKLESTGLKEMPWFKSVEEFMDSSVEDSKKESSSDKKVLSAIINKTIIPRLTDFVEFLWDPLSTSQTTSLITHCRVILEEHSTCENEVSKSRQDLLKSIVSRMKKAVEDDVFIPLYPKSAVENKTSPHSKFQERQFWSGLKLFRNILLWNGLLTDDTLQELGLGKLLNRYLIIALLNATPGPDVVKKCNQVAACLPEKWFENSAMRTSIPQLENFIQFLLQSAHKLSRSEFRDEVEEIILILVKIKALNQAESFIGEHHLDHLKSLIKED
# UniProt P10412, whole entry: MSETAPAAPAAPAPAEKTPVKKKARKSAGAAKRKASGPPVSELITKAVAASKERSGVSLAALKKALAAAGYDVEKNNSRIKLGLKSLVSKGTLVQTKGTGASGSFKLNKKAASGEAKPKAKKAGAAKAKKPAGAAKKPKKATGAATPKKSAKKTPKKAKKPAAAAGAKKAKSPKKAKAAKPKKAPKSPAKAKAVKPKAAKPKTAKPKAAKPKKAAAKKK
# UniProt P08579, whole entry: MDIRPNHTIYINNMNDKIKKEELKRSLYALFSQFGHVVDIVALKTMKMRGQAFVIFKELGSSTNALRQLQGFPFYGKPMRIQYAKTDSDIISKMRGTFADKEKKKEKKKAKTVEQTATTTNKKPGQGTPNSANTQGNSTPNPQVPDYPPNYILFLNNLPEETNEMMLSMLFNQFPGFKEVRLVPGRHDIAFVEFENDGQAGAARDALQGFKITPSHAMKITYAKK
# UniProt P04066: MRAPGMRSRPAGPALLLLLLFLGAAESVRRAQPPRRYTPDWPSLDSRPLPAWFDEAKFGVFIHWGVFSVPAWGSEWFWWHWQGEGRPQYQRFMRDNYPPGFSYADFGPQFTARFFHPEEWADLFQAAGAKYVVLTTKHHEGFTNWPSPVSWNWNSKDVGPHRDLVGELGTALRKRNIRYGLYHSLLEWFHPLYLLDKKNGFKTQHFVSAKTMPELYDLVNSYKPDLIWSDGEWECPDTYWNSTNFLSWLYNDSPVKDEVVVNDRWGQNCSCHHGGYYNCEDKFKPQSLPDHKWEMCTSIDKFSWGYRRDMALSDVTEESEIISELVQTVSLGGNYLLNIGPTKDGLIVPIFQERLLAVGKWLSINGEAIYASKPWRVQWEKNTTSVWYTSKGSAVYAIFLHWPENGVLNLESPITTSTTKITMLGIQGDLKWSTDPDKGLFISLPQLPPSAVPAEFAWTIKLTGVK
# UniProt P00387: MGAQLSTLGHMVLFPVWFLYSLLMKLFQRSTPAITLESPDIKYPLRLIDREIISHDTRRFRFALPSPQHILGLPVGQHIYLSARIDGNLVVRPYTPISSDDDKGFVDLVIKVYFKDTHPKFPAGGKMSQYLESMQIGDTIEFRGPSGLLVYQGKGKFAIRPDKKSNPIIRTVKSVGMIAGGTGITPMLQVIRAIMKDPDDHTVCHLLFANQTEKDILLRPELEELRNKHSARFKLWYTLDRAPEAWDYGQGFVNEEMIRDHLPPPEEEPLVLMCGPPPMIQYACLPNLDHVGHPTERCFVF
# UniProt P08311: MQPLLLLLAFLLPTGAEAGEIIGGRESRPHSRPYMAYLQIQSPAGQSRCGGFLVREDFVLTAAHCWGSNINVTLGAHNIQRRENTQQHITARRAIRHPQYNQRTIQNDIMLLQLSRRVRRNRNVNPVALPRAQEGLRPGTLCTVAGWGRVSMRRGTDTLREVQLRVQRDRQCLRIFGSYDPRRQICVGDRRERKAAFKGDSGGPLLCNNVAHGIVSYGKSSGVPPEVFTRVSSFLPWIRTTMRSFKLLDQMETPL
# UniProt P01737: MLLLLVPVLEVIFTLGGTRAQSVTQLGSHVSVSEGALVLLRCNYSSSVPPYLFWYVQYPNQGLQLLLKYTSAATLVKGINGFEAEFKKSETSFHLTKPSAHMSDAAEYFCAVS
# UniProt P04150: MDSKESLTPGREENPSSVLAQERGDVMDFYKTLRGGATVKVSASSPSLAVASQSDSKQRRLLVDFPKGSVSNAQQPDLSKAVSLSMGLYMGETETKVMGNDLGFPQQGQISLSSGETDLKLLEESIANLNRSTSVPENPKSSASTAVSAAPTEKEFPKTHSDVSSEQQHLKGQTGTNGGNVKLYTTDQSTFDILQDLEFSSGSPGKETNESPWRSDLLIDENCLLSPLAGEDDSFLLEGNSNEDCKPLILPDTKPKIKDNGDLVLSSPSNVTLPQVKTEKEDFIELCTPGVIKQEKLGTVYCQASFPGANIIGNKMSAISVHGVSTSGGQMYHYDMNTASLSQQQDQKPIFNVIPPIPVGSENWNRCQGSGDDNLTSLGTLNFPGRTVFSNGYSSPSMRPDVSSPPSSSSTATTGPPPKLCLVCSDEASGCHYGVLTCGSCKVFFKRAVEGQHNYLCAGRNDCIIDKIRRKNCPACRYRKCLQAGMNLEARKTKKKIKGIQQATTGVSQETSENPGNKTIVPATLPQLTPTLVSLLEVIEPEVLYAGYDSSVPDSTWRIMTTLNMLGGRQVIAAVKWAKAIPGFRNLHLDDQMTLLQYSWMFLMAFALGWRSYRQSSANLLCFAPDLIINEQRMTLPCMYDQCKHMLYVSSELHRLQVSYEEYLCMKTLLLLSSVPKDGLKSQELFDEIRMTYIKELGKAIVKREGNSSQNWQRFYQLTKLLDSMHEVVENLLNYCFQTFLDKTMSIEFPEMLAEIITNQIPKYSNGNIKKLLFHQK
# UniProt P13598: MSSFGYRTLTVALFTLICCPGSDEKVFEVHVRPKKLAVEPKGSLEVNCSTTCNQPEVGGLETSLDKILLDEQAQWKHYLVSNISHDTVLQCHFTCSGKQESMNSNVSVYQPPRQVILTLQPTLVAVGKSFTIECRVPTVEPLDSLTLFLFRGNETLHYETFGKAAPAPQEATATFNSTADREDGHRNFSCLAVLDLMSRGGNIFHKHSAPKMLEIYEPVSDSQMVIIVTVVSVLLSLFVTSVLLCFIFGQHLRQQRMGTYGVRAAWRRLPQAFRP
# UniProt P0C7T5: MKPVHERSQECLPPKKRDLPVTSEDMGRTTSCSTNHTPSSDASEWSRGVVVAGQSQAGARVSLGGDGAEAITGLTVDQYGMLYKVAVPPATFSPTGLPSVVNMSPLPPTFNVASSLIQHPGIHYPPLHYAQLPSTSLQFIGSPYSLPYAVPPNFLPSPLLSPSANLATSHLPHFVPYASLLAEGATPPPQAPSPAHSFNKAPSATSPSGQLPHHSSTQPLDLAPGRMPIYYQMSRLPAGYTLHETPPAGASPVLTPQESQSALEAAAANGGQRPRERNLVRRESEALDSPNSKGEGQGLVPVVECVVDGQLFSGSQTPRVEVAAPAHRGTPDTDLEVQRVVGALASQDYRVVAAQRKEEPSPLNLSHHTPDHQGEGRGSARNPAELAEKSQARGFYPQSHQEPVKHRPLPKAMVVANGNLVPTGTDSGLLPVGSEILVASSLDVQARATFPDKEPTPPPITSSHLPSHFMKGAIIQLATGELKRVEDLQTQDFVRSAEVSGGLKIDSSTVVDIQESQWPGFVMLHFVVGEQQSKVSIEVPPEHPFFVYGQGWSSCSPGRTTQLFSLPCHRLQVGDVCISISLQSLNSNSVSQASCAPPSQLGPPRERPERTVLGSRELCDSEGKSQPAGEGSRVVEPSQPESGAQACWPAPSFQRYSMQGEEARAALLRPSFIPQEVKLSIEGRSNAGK
# UniProt P07195, whole entry, looked up: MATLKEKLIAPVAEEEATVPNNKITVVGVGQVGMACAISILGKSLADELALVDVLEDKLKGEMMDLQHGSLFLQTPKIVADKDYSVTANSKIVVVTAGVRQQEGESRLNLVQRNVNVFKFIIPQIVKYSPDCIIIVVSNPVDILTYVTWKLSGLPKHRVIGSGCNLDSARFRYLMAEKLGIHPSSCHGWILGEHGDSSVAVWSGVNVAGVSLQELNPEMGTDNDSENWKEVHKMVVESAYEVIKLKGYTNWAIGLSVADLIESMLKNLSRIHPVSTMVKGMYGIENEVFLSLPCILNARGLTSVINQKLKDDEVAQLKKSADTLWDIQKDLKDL
# UniProt P11216: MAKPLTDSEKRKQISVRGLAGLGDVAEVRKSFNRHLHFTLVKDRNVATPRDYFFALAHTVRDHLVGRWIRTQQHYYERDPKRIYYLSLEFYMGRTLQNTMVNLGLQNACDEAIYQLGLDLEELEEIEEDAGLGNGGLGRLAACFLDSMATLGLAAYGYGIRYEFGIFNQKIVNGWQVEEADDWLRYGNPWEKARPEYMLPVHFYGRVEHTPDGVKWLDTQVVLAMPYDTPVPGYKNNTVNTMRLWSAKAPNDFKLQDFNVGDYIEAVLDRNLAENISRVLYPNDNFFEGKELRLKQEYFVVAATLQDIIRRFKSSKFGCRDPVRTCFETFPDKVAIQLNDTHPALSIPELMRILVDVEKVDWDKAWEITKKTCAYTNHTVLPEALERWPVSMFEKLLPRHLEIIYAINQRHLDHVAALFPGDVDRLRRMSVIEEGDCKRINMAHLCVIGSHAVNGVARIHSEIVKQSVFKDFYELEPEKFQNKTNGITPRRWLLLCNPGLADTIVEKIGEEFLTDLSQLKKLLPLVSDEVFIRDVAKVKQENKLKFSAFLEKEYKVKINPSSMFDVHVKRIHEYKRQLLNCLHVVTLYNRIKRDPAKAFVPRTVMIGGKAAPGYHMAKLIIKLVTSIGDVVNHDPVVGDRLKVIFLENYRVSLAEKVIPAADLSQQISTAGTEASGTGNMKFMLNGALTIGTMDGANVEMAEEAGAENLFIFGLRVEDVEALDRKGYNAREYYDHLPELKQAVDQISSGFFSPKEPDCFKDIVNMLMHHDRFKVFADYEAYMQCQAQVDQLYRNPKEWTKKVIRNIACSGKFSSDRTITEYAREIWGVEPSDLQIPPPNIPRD
# UniProt P11766: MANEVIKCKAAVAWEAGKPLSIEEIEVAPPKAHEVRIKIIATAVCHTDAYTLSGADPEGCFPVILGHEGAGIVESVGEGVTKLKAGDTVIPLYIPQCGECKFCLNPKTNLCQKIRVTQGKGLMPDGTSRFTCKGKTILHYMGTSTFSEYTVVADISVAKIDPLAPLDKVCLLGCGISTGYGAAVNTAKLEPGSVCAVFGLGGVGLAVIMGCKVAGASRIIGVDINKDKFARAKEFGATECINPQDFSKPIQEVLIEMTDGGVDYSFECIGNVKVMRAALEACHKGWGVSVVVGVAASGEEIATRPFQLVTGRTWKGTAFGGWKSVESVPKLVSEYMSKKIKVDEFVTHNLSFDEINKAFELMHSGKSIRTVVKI
# UniProt P14866: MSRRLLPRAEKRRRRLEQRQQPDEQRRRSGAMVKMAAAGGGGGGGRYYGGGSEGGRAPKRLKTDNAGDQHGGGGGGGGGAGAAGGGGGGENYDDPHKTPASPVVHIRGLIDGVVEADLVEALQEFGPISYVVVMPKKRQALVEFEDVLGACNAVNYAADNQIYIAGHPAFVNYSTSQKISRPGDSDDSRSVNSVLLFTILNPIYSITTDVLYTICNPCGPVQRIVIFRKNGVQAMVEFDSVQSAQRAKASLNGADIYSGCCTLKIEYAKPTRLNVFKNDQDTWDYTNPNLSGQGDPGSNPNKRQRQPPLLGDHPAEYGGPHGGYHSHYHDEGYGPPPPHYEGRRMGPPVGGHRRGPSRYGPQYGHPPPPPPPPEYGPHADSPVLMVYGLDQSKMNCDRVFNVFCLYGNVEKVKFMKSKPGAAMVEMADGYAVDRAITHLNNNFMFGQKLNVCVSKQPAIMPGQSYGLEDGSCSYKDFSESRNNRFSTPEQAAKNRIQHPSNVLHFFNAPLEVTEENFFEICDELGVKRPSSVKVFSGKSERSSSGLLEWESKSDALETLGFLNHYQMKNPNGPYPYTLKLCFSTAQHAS
# UniProt P14854, whole entry: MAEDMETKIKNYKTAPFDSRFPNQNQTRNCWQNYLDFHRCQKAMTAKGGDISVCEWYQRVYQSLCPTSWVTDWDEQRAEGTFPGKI
# UniProt P07305, whole entry: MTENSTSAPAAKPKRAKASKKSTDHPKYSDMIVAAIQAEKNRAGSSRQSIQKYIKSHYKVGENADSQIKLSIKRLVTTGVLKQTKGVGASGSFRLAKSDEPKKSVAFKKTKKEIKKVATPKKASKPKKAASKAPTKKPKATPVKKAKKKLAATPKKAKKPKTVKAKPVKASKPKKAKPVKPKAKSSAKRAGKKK
# ± gives the standard deviation of the averaged measurements. This is a selection; strong and weak results do not stand in their true shares.
# Compound: Nc1ncnc2c1ncn2[C@@H]1O[C@H](COP(=O)(O)OP(=O)(O)OP(=O)(O)O)[C@@H](O)[C@H]1O [adenosine triphosphate]
# Experiment: NP40-soluble protein abundance relative to vehicle (solubility fold change) (ratio); higher = more soluble protein in presence of ATP
# Method in brief: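 Jurkat crude lysate prepared with a Dounce homogeniser was treated at eight concentrations spanning 0.1 to 10 mM, 10 min at room temperature then 3 min at 37 °C. Solubilisation with 0.8% NP40 and benzonase and ultracentrifugation preceded TMT labelling of the supernatant for LC-MS/MS. Fold change against the detergent-processed vehicle was determined per replicate from vsn-normalised intensities, across three independent experiments.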
Target,NP40-soluble protein abundance (concentration: 1mM),NP40-soluble protein abundance (concentration: 2mM),NP40-soluble protein abundance (concentration: 4mM),NP40-soluble protein abundance (concentration: 6mM),NP40-soluble protein abundance (concentration: 8mM),NP40-soluble protein abundance (concentration: 10mM)
UniProt P16383,0.989 ± 0.05,1.03 ± 0.026,1.05 ± 0.058,1.07 ± 0.065,0.985 ± 0.044,1.06 ± 0.028
HIST1H1E (UniProt P10412),1.14 ± 0.19,1.08 ± 0.068,1.18 ± 0.1,1.33 ± 0.11,1.26 ± 0.095,1.61 ± 0.22
UniProt O95822 and related entries,1.07 ± 0.19,1.04 ± 0.15,1.09 ± 0.14,0.943 ± 0.14,1.03 ± 0.059,1.03 ± 0.089
SNRPB2 (UniProt P08579),1.02 ± 0.061,1 ± 0.015,0.988 ± 0.037,1.09 ± 0.018,1.04 ± 0.021,1.04 ± 0.022
FUCA1 (UniProt P04066),1.01 ± 0.085,1.06 ± 0.25,0.963 ± 0.12,0.918 ± 0.22,0.969 ± 0.093,0.961 ± 0.021
UniProt P00387 and related entries,1.03 ± 0.14,1.01 ± 0.11,0.978 ± 0.06,0.873 ± 0.17,1.01 ± 0.055,0.997 ± 0.064
CTSG (UniProt P08311),0.986 ± 0.089,0.963 ± 0.13,0.957 ± 0.11,0.94 ± 0.14,0.89 ± 0.16,0.951 ± 0.16
UniProt P01737,0.935 ± 0.023,0.949 ± 0.059,0.928 ± 0.055,0.956 ± 0.054,0.892 ± 0.048,0.901 ± 0.034
LGALS1 (UniProt P09382),1.02 ± 0.14,0.994 ± 0.069,0.978 ± 0.088,1.01 ± 0.092,0.96 ± 0.086,0.946 ± 0.062
UniProt O95834-2|O95834-3|O95834,1.02 ± 0.099,0.992 ± 0.088,0.982 ± 0.083,0.963 ± 0.11,1.03 ± 0.092,0.994 ± 0.067
TTC4 (UniProt O95801),0.993 ± 0.018,0.987 ± 0.0076,0.958 ± 0.022,0.97 ± 0.027,0.932 ± 0.021,0.925 ± 0.024
UniProt P04150 and related entries,1 ± 0.061,0.926 ± 0.12,0.881 ± 0.13,0.89 ± 0.13,0.872 ± 0.21,0.805 ± 0.16
AKR1B1 (UniProt P15121),1.01 ± 0.12,0.971 ± 0.11,0.918 ± 0.094,0.907 ± 0.17,0.959 ± 0.086,0.931 ± 0.093
NRAS (UniProt P01111),1.03 ± 0.058,1.05 ± 0.033,1.06 ± 0.058,1.07 ± 0.034,1.03 ± 0.057,1.04 ± 0.03
ICAM2 (UniProt P13598),0.921 ± 0.051,0.889 ± 0.051,0.876 ± 0.038,0.943 ± 0.012,0.869 ± 0.026,0.814 ± 0.089
UniProt P06127,0.967 ± 0.083,1 ± 0.06,1.01 ± 0.039,1.03 ± 0.045,0.974 ± 0.025,0.937 ± 0.052
ATXN1L (UniProt P0C7T5),0.953 ± 0.05,0.938 ± 0.04,0.969 ± 0.023,0.96 ± 0.0098,0.942 ± 0.064,0.9671 ± 0.0032

Target,NP40-soluble protein abundance (concentration: 1mM),NP40-soluble protein abundance (concentration: 2mM),NP40-soluble protein abundance (concentration: 4mM),NP40-soluble protein abundance (concentration: 6mM),NP40-soluble protein abundance (concentration: 8mM),NP40-soluble protein abundance (concentration: 10mM)
UniProt P06213 and related entries,0.998 ± 0.022,1.02 ± 0.025,1.05 ± 0.025,0.961 ± 0.07,1 ± 0.028,1.01 ± 0.034
UniProt P06239 and related entries,1.06 ± 0.022,1.01 ± 0.035,1.03 ± 0.021,0.9593 ± 0.008,1.04 ± 0.017,1.03 ± 0.021
SLC25A5 (UniProt P05141),0.99 ± 0.084,0.995 ± 0.036,0.999 ± 0.033,0.97 ± 0.018,1.02 ± 0.038,1.09 ± 0.059
IGF2R (UniProt P11717),0.949 ± 0.047,0.956 ± 0.039,0.926 ± 0.025,0.954 ± 0.064,0.902 ± 0.043,0.933 ± 0.0099
HSPA5 (UniProt P11021),0.949 ± 0.06,0.903 ± 0.044,0.872 ± 0.02,0.953 ± 0.033,0.906 ± 0.021,0.901 ± 0.021
LDHB (UniProt P07195),0.855 ± 0.22,1.03 ± 0.12,0.815 ± 0.16,1 ± 0.1,1.01 ± 0.14,0.835 ± 0.19
UniProt P11802 and related entries,1.02 ± 0.081,1.01 ± 0.054,0.988 ± 0.11,0.98 ± 0.087,0.978 ± 0.076,0.95 ± 0.019
PYGB (UniProt P11216),0.845 ± 0.14,0.828 ± 0.068,0.956 ± 0.08,1.04 ± 0.056,1.27 ± 0.047,1.33 ± 0.048
ACADS (UniProt P16219),1.07 ± 0.12,1.06 ± 0.058,1.01 ± 0.05,0.991 ± 0.11,1.04 ± 0.06,1.03 ± 0.046
ADH5 (UniProt P11766),0.925 ± 0.041,0.926 ± 0.034,0.874 ± 0.028,0.895 ± 0.064,0.883 ± 0.028,0.895 ± 0.027
HNRNPL (UniProt P14866),1.1 ± 0.05,1.12 ± 0.044,1.18 ± 0.06,1.28 ± 0.079,1.3 ± 0.062,1.35 ± 0.11
COX6B1 (UniProt P14854),0.852 ± 0.078,0.85 ± 0.13,0.906 ± 0.073,0.839 ± 0.14,0.857 ± 0.071,0.827 ± 0.12
H1F0 (UniProt P07305),0.934 ± 0.03,0.883 ± 0.031,0.88 ± 0.023,0.857 ± 0.041,0.692 ± 0.068,0.968 ± 0.044
MIF (UniProt P14174),0.962 ± 0.013,0.97 ± 0.015,0.967 ± 0.015,0.901 ± 0.035,0.938 ± 0.036,0.909 ± 0.046
UniProt P08559 and related entries,1.09 ± 0.061,0.988 ± 0.033,0.931 ± 0.016,0.967 ± 0.13,0.963 ± 0.077,0.949 ± 0.059
SNRPA1 (UniProt P09661),0.961 ± 0.082,0.992 ± 0.044,0.987 ± 0.047,1.05 ± 0.077,1.02 ± 0.053,1 ± 0.045
UniProt P04424 and related entries,1 ± 0.028,0.994 ± 0.04,0.971 ± 0.02,0.963 ± 0.025,0.948 ± 0.036,0.948 ± 0.046

# An excerpt of these results, with tabs.
Target	NP40-soluble protein abundance (concentration: 1mM)	NP40-soluble protein abundance (concentration: 2mM)	NP40-soluble protein abundance (concentration: 4mM)	NP40-soluble protein abundance (concentration: 6mM)	NP40-soluble protein abundance (concentration: 8mM)	NP40-soluble protein abundance (concentration: 10mM)
SLC25A5 (UniProt P05141)	0.99 ± 0.084	0.995 ± 0.036	0.999 ± 0.033	0.97 ± 0.018	1.02 ± 0.038	1.09 ± 0.059
UniProt P11802 and related entries	1.02 ± 0.081	1.01 ± 0.054	0.988 ± 0.11	0.98 ± 0.087	0.978 ± 0.076	0.95 ± 0.019
